# Experimental data reported in PubChem BioAssay AID493014 (National Center for Advancing Translational Sciences (NCATS), 2011).
# About 170 (0.05%) of roughly 340,000 compounds were called active. Inconclusive means that the source gave no clear call. Such entries were picked first, then a sample of the others. Calls follow the shape of the dose curve; as a rule, active = well fitted inhibition curve with a large enough effect in the signal ratio, with a control signal flat (not every such curve was filed as active); inconclusive = small, poorly fitted or top-dose-only effect, or effect the other way, or a change in a side signal; inactive = flat fitted curve, though single readings scatter; the % refers to the signal ratio. Potencies beside an inconclusive call are fits to weak or partial responses and may not hold up.
# Assay: qHTS Assay to Find Inhibitors of Chronic Active B-Cell Receptor Signaling;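 as to activity change, negative = inhibition: plate controls were basal doxycycline-induced cells for no effect and cells given 10 µM MG132 for full effect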
# Settings: ABC-DLBCL IkBa-CBG/CBR reporter, luminescence ratio (green luciferase fused to IkBa over red control in TMD8 lymphoma cells), 4 h; activity change, negative = inhibition: at 46.1 µM (top of the series) unless noted
# Procedure, shortened: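 Concentration-response series (up to 46 uM) were applied to TMD8 dual-reporter cells for 4 h at 37C with doxycycline. Green/red ratio, after filter-overlap correction, defined %Activity; red signal alone was normalised to basal cells and zero luminescence.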
# Potency is read from the fitted curve at half-maximal effect.
Structure (SMILES),"activity change, negative = inhibition",Potency
Cc1cccc(C)c1N1CCN(C(=O)N2CCOCC2)CC1,inconclusive: 1.65%,–
CCCCn1c(N)c(N(CCC(C)C)C(=O)C2CC(=O)N(c3cccc(SC)c3)C2)c(=O)[nH]c1=O (configuration not stated),inconclusive: 24.2%,–
Cc1ccc(C(=O)N2N=C(c3ccc(NS(C)(=O)=O)cc3)CC2c2cccs2)cc1 (configuration not stated),–,"inconclusive: 14.1 µM [falling, partial curve, poor fit]"
CCN(Cc1ccc(Cl)s1)C(=O)c1cccc(OCc2c(C)noc2C)c1,inactive: -9.15%,–
COc1ccc(NC(=O)CSc2nccn2Cc2ccco2)cc1OC,inactive: -4.34%,–
COc1cccc(OC)c1OCc1cc(C2C3CCCC=C3C(C#N)=C(N)C2(C#N)C#N)c(C)cc1C (configuration not stated),inconclusive: -14.2%,–
NC(=O)C1(N2CCCCC2)CCN(C(=O)c2ccccc2)CC1,inconclusive: 0.477%,–
S=C(NCCc1ccccc1)Nc1ccccc1Cl,inactive: -3.34%,–
COc1nc(-c2cnccn2)sc1C,inactive: -9.2%,–
COCC(C)NC(=O)c1ccc(CN2CCc3ccccc3C2)cc1 (configuration not stated),inconclusive: -6.39%,–
COc1ccc(CCC(=O)Nc2nc(C)c(C(=O)N(C)C)s2)cc1,inconclusive: -1.07%,–
O=C(c1cc(Br)c(Br)s1)N1CCc2ccccc2C1,inconclusive: -0.792%,–
CS(=O)(=O)c1ccc2nnn(OCC(=O)Nc3cccc(C#N)c3)c2c1,inconclusive: -18.4%,–
Cn1c(SCC(=O)N/N=C/c2ccc(O)c(O)c2)nc2ccccc21,–,"inconclusive: 12.6 µM [falling, partial curve]"
O=C(Nc1ccc(S(=O)(=O)N2CCC(C(=O)NC3CCCCC3)CC2)cc1)c1ccco1,inconclusive: -0.496%,–
CSc1ccc(CN2CCc3c([nH]c4ccccc34)C2)cc1,inconclusive: -7.25%,–
CNC(=O)CN1C(=O)c2cccc3cccc1c23,inconclusive: 22.6%,–
COc1ccc(-c2cc(C(=O)NCC(c3ccco3)N(C)C)c3ccccc3n2)cc1OC (configuration not stated),inconclusive: -0.371%,–
COc1ccc(NC(=S)/N=C(\N)Nc2nc(C)c3ccccc3n2)cc1,–,"inconclusive: 35.5 µM [falling, partial curve, poor fit]"
O=C(OCc1nc2ccccc2s1)C1CCN(C2=NS(=O)(=O)c3ccccc32)CC1,inconclusive: 18.1%,–
CC[C@]12c3[nH]c4cc(CCC(=O)N(C)C)ccc4c3CCN1C(=O)[C@@H](CC(=O)NCCc1ccccn1)C[C@@H]2C(=O)N1CCN(C(=O)C2CC2)CC1,inconclusive: 4.52%,–
COc1ccc(-c2cc(C(F)(F)F)nc(NC3CCCC3)n2)cc1OC,inconclusive: 7.85%,–
O=C(NNS(=O)(=O)c1ccccc1)c1cc2cc3ccccc3nc2s1,–,"inconclusive: 14.1 µM [falling, single point]"
O=C(Cn1cc(C(F)(F)F)ccc1=O)OCC(=O)c1ccc[nH]1,inconclusive: 11.5%,–
O=[N+]([O-])c1ccc(-c2ccc(/C=N/Nc3nc(N4CCCC4)nc(N4CCCC4)n3)o2)cc1,inactive: -10.2%,–
COc1ccc(CNS(=O)(=O)c2cc(-c3cc(C)no3)ccc2C(C)C)cc1,–,"inconclusive: 35.5 µM [falling, single point]"

# One compound at a time, as listed above. Order of values: activity change, negative = inhibition | Potency
# `O=C(Nc1ccc(S(=O)(=O)N2CCC(C(=O)NC3CCCCC3)CC2)cc1)c1ccco1` as listed: inconclusive: -0.496% | –
# `Cc1cccc(C)c1N1CCN(C(=O)N2CCOCC2)CC1` as listed: inconclusive: 1.65% | –
# `COc1nc(-c2cnccn2)sc1C` as listed: inactive: -9.2% | –

# Additional structures.

Structure (SMILES),"activity change, negative = inhibition",Potency
Cc1ccc(OCC(=O)c2cc(C)n(CC(F)(F)F)c2C)c([N+](=O)[O-])n1,–,"inconclusive: 22.4 µM [falling, single point]"
CC1=Nc2ccccc2/C1=C\c1nc(-c2ccccc2)oc1O,–,"inconclusive: 0.461 µM [rising, full curve, poor fit]"
CC1(C)Cc2c(c(N3CCOCC3)nc3sc(C(=O)N4CCCCC4)c(N)c23)CO1,inconclusive: -5.77%,–
O=C(Cn1cnc2c(oc3ccccc32)c1=O)N1CCCc2ccccc21,inconclusive: -31.6%,–
CC1CCCN(S(=O)(=O)Cc2ccc(Cl)cc2)C1 (configuration not stated),inconclusive: 28.9%,–
CC(/C=C/c1ccc2c(c1)OCO2)=N\NC(=O)c1ccccc1,–,"inconclusive: 25.1 µM [falling, single point]"
COc1cccc(NC(=O)CSCC(=O)Nc2ccccc2)c1,–,"inconclusive: 32.6 µM [rising, single point]"
O=C(NCC(=O)N1CCN(C(c2ccccc2)c2ccccc2)CC1)c1ccc(Br)o1,inconclusive: 0.0866%,–
O=C(Nc1ccc(F)cc1)C1CCN(c2ncnc3c2nc2n3CCCCC2)CC1,inactive: 0.392%,–
O=C(N/N=C/C(Br)=C/c1ccccc1)c1ccncc1,inconclusive: 26.3%,–
CCCCOc1ccccc1C(=O)NCCCC(=O)O,inconclusive: -26%,–
COC(=O)CCS(=O)(=O)c1ccc(Cl)cc1,inconclusive: -3.11%,–
COC(=O)/C(=C1/Oc2ccc(C(C)(C)C)cc2S1)C(F)(F)F,inactive: 3.9%,–
CC1=NN(c2ccccc2)C(=O)/C1=C/C=C/c1ccc(N(C)C)cc1,inconclusive: 10.2%,–
Cc1ccc(OCCCN2CCOCC2)cc1,inactive: 6.8%,–
CCOC(=O)c1c(NC(=O)C2CC=CCC2C(=O)O)sc(C)c1CC (configuration not stated),inconclusive: 17.3%,–
CC1CCc2cccc3c2N1c1cc(C#N)c(C#N)cc1O3 (configuration not stated),inconclusive: 16.1%,–
Cc1ccc(C(=O)c2ccccc2C(=O)OCC(=O)Nc2cccc([N+](=O)[O-])c2)cc1,inconclusive: -8.6%,–
NC(=O)c1ccsc1NC(=O)CSc1nc2ccccc2c(=O)n1CCCO,inconclusive: -5.89%,–
O=C(/C=N/O)Nc1ccc2sc3ccccc3c2c1,inactive: 7.55%,–
O=C(O)c1ccc(CSc2nnc(-c3ccccc3Br)o2)cc1,–,"inconclusive: 3.55 µM [falling, partial curve, poor fit]"
O=C1CC(SCCO)C(=O)N1c1ccc(Oc2ccccc2)cc1 (configuration not stated),inconclusive: 0.88%,–
CCCN(CC1COc2ccccc2O1)C(=S)Nc1ccc(C)cc1 (configuration not stated),inconclusive: -5.45%,–
CNC(=O)c1[nH]cnc1C(=O)Nc1ccc(C)cc1,inconclusive: 1.86%,–
Cc1cc(C(=O)Nc2nnc(C(F)(F)F)s2)no1,–,"inconclusive: 23.1 µM [falling, single point]"
Cc1ccccc1C(=O)O/N=C(\N)c1ccc([N+](=O)[O-])cc1,inactive: -6.82%,–

# Sorted by count of non-hydrogen atoms (rising): some entries from above
Structure (SMILES),"activity change, negative = inhibition",Potency
CCCCOc1ccccc1C(=O)NCCCC(=O)O,inconclusive: -26%,–
Cc1ccccc1C(=O)O/N=C(\N)c1ccc([N+](=O)[O-])cc1,inactive: -6.82%,–
COc1cccc(NC(=O)CSCC(=O)Nc2ccccc2)c1,–,"inconclusive: 32.6 µM [rising, single point]"
